Patent publication US8530452B2, “Tricyclic boron compounds for antimicrobial therapy” (Micurx Pharmaceuticals, Inc., priority 2011, dated 2013)
Counter-ions that a name gives are not always drawn. For at least one compound, name, drawing or mass did not settle the structure.

Tested on: Gram-negative pathogens
Assay: Antibacterial activity against Gram-negative pathogens in vitro (overall statements)
Type: cell-based
Conditions: Table 1 pathogens overall
From the text: The in vitro activity of compounds provided herein may be assessed by standard testing procedures such as the determination of minimum inhibitory concentration (MIC) as described in Approved Standard. Methods for Dilution Antimicrobial Susceptibility Tests for Bacteria that Grow Aerobically, 3rd ed., 1993, published by the National Committee for Clinical Laboratory standards, Villanova, Pa., USA. Low MIC values indicate high antibacterial activity, while high MIC values reveal a reduced antibacterial activity (with higher drug concentration required for pathogen eradication in the latter instance).

| SMILES | antibacterial activity (potency) in words |
| --- | --- |
| Cl.NCC1OB2OC(CO)(CO)COc3cccc1c32 (centres unmarked) [Example 15, (2-(Aminomethyl)-7,8-dihydro-2H-1,6,9-trioxa-9a-borabenzo[cd]azulene-8,8-diyl)dimethanol hydrochloride] | nearly complete loss of antibacterial potency |
| NC[C@H]1OB2O[C@H](CF)COc3cccc1c32 [Example 17, ((2S,8S)-8-(Fluoromethyl)-7,8-dihydro-2H-1,6,9-trioxa-9a-borabenzo[cd]azulen-2-yl)methanamine hydrochloride] | reduced activity |
